# B1: Gal-3C: N-terminally truncated form of full length galectin-3, lacking the amino-terminal domain but retaining carbohydrate binding ability; 143 carboxy-terminal residues, SEQ ID NO: 3 (protein)
# chain: GAPAGPLIVPYNLPLPGGVVPRMLITILGTVKPNANRIALDFQRGNDVAFHFNPRFNENNRRVIVCNTKLDNNWGREERQSVFPFESGKPFKIQVLVEPDHFKVAVNDAHLLQYNHRVKKLNEISKLGISGDIDITSASYTMI
# System: IL-6
# Assay: ELISA of IL-6 in plasma of rats with ischemia-reperfusion injury
# Type: in vivo, rat
# Details: 28 days
# Experimental: The levels of the inflammatory cytokines, interleukin (IL)-1β and IL-6, were determined in the plasma of control rats and rats with ischemia-reperfusion injury at 2 days (FIG. 4) and 28 days (FIG. 5) post-injury using ELISA kits according to the instructions of the vendor (Pierce ThermoFisher).
# The levels of the inflammatory cytokines, IL-1β and IL-6, were determined in the plasma of sham control rats and rats with ischemia-reperfusion injury at 28 days post-injury (FIG. 5) using ELISA kits as described in Example 2 above.
molecule,measurement,setting,value
B1,IL-6 plasma level vs delayed PBS controls,"delayed window, 600 μg/d",did not have a significant effect
same,IL-6 plasma level vs PBS-only controls,"early window, 200 or 600 μg/day",significantly reduced

# From patent US10369195B2, “Methods and compositions for preventing and treating damage to the heart” (MandalMed, Inc., priority 2016, dated 2019)
